These are yes or no findings as the source states them, for the method shown. In cells and extracts the contact can be indirect. Binding calls can cover weak binding; strength is not graded here.
Biological target: T1, DsRed-Zfra
T1 sequence: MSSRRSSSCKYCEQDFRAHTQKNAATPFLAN
Experiment: FRET or BRET; FRET microscopy (FRETc) in COS7 fibroblasts co-transfected with EGFP and DsRed constructs

EGFP-Hyal-2 was tested, and the binding was “binds”.
